## Percent effect of library compounds

Measurements from “University of Dundee, Small-Polar-MMV Screening Library” (2021), ChEMBL document CHEMBL3988442.

The filed quantity is “Percent Effect” (%).
The controls that fix the scale are not given in the record; negative values are as filed.
The compounds are a random part of those screened.
Two or more numbers in one place are separate tests of the same structure; such repeats can differ widely.

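Growth of Mycobacterium tuberculosis over 4 days (cholesterol / DPPC medium with tyloxapol); the read-out is not stated. Tested at 50 µM. Higher reads as more growth inhibition (inferred: compounds with an IC50 in retests scored well above the rest). Size under these conditions: about 69,000 compounds, about 370 of them at 50% or above in at least one test.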

- CCCN(C(=O)CNC1CCc2ncnn2C1)C1=CCCCC1 (stereo not shown) | -6.142%
- CC(C)(CC(=O)N(CC(N)=O)C1CCCC1)c1ccccc1 | -15.44%
- CN(C)C(=O)c1cc(-c2ccccc2)[nH]n1 | -13.87%
- CC(C1CC1)N(C(=O)CNc1ccc(C#N)cc1)C1CC1 (stereo not shown) | 3.805%
- Cc1nc(C)n(CC2CN(Cc3cccc(OC(C)C)c3)CCO2)n1 (stereo not shown) | -23.89%
- CC(O)CCN(C)C(=O)Nc1cc(F)cc(Br)c1 (stereo not shown) | -12%
- Cc1ccc(F)c(C(=O)NC2CCC(N3C(=O)CCC3=O)CC2)c1 (stereo not shown) | -7.856%
- CC(C)c1nc(CN(C)C2CCN(CC(F)(F)F)C2)no1 (stereo not shown) | 10.68%
- CN(C)CCCNC(=O)c1ccc(N(C)S(C)(=O)=O)cc1Cl | -5.663%
- COCc1nc(C(=O)N2CCCC2c2cc(C)no2)cs1 (stereo not shown) | 1.748%
- OCC1CCCN(c2ncnc3c2Cc2ccccc2OC3)C1 (stereo not shown) | 7.989%
- COCc1noc(C2(c3ccc(F)cc3)CCC2)n1 | 6.718%
- O=C(O)C(F)(F)F.[H][C@@]12COC[C@]1(CNC(=O)c1ccco1)CN(C1CCOCC1)C2 | -23.84%
- COc1ccc(F)cc1C(C(=O)O)N1CCCN(C2CCCC2)CC1 (stereo not shown) | 5.145%
- CCc1nc(CN(C)C2CCN(CCOc3ccccc3)C2)no1 (stereo not shown) | 4.127%
- CCn1ncc(S(=O)(=O)N2CCCC3(CC=CNC3=O)C2)c1C (stereo not shown) | 0.1813%
- O=C(O)C(F)(F)F.[H][C@@]12CCN(c3cccnc3)C[C@]1([H])CN(C(=O)c1ccncc1)C2 | 0.9206%
- O=C(O)C(F)(F)F.O=C(O)C(F)(F)F.[H][C@@]12CCN(Cc3cccnc3)C[C@]1(C(=O)N1CCCO1)CCO2 | -23.31%
- Cc1cc(C)n(CC2CCCN2CC(=O)NC2CCOCC2)n1 (stereo not shown) | 5.184%
- COc1ccc2c(ccn2CC(=O)N2CCCC2Cn2cccn2)c1 (stereo not shown) | -0.7488%
- Cn1cc(C2COC3(CCN(C(=O)Cc4ccccc4)CC3)C2)cn1 (stereo not shown) | -18.48%
- Cc1cc(CN(C)C(=O)CN2CC3(CCNCC3)OC2=O)no1 | -3.487%
- Cc1cccc(CN2CCCC3(CCN(C4CCSCC4)C3)C2=O)c1 (stereo not shown) | 30.47%
- CCN(CC)c1nc(C)cc(C(=O)Nc2cnn(CC)c2)n1 | -1.738%
- CN(C)CCNC(=O)c1cc2c(s1)CCN2S(C)(=O)=O | -17.23%
- O=C(O)C(F)(F)F.[H][C@@]12COC[C@H](C(=O)N3CCCCO3)[C@]1([H])CN(Cc1ccc(C)o1)C2 | 16.99%
- Fc1ccc(OCC2CCCO2)c(NCc2noc(C3CC3)n2)c1 (stereo not shown) | 35.74%
- CCOc1ncnc2c1CCN(Cc1cccs1)CC2.O=C(O)C(F)(F)F | 13.65%
- CC(C)c1cc(C(=O)N2CCCC(c3cc(=O)nc4n3CCC4)C2)no1 (stereo not shown) | -21.23% and 0.9464%
- Cc1nocc1C(=O)N1CCCC2(CCN(c3cnn(C)c3)C2=O)C1 (stereo not shown) | 11.75%
- [H][C@]12CC[C@@]3(N=C(CC)N(CC(C)C)C3=O)[C@@]1([H])CN(C(=O)NCC(C)C)C2 | 21.21%
- O=C(O)C(F)(F)F.O=C(O)C(F)(F)F.[H][C@]12CCN(C(=O)CC(C)C)CC[C@@]1([H])S(=O)(=O)CCN2Cc1cccnc1 | 8.317%
- Cc1csc(CCNCc2cnc3c(c2)c(C)nn3C)n1.Cl | 9.629%
- O=C(O)C(F)(F)F.O=C(O)C(F)(F)F.[H][C@]12C[C@@H](CN3CCCC3)N(C)[C@@]1([H])CCN(C(=O)Cc1ccsc1)C2 | -19% and -14.8%
- [H][C@]12C[C@H](C(=O)NC)N(S(C)(=O)=O)[C@@]1([H])CN(C(=O)c1cscn1)C2 | 0.389%
- Cc1nnc2n1CCN(CC(=O)N1CCc3ccccc3C1)C2 | -46.28%
- [H][C@@]12CCN(C(=O)c3ccccc3)C[C@@]1([H])O[C@H](c1nnc(C3CC3)o1)C2 | -4.926%
- CC(Cn1ccnc1)NS(=O)(=O)c1ccc(F)c(Cl)c1 (stereo not shown) | -4.021%
- CCNC(=O)NC(=O)CN1CCC(c2c[nH]c3ccc(OC)cc23)CC1 | -11.72%
- COc1cccc([C@H]2CN(C(=O)c3nnc4n3CCCC4)C[C@@H]2N)c1 | -10.17%
- CCc1cc(N(C)CCCO)n2nccc2n1 | 13.62%
- COc1ccc(C(=O)NCCCOC(C)c2ccccc2)c(OC)c1 (stereo not shown) | 18.77%
- CC(O)CN(Cc1cccc(C(=O)N(C)C)c1)c1ccccc1 (stereo not shown) | -6.729%
- CN1CCN(C2CCN(CC(O)c3ccccc3)CC2)C1=O (stereo not shown) | 7.323%
- CNC(=O)Cc1ccc(-n2ccnc2-c2cccc(C(=O)O)c2)cc1 | -21.53%
- Cc1nc(N2CCOCC2)nc2c1CCN(Cc1nccn1C)CC2.O=C(O)C(F)(F)F | -2.883%

For reference, 4 entries once more:

Result for COCc1nc(C(=O)N2CCCC2c2cc(C)no2)cs1 (stereo not shown) was 1.748%.
Result for CNC(=O)Cc1ccc(-n2ccnc2-c2cccc(C(=O)O)c2)cc1 was -21.53%.
Result for CC(C)(CC(=O)N(CC(N)=O)C1CCCC1)c1ccccc1 was -15.44%.
Result for COc1ccc(C(=O)NCCCOC(C)c2ccccc2)c(OC)c1 (stereo not shown) was 18.77%.